# Reference: PubChem BioAssay AID493014 (National Center for Advancing Translational Sciences (NCATS), 2011)
# This is one part of the list. These are further read-outs of the screen, such as a control signal, another cell line or another target. No call is given for them. Compounds called inactive in the main read-out are mostly missing here. Words in brackets tell the shape of the fitted curve; partial curves, single points and poor fits give uncertain potencies.
# Test: qHTS Assay to Find Inhibitors of Chronic Active B-Cell Receptor Signaling
# Settings: ABC-DLBCL IkBa-CBG/CBR reporter, luminescence ratio (green luciferase fused to IkBa over red control in TMD8 lymphoma cells), 4 h
# How it was run: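 Concentration-response series (up to 46 uM) were applied to TMD8 dual-reporter cells for 4 h at 37C with doxycycline. Green/red ratio, after filter-overlap correction, defined %Activity; red signal alone was normalised to basal cells and zero luminescence.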
# [1] = measured here: CBR red luminescence, cell number
# [2] = measured here: IkBa-CBG green luminescence
Structure (SMILES),AC50 [1],AC50 [2]
Cc1cc(C(=O)CSc2nnc(CCC(N)=O)n2C)c(C)n1C1CC1,"32.6 µM [rising, partial curve, poor fit]",–
CCOc1ccc(NC(=O)CN2C(=O)/C(=C3\SC(=S)N(C4CCS(=O)(=O)C4)C3=O)c3ccccc32)cc1 (configuration not stated),"5.01 µM [rising, full curve, poor fit]",–
COc1cc(C(=O)COC(=O)C2CCCCC2)cc(OC)c1OC,"29.1 µM [rising, single point]",–
O=C(O)CCC(=O)Nc1cccc(C(=O)Nc2ccc(Br)cc2)c1,"35.5 µM [falling, partial curve, poor fit]",–
O=C1OCCN1C(=O)[C@H]1[C@H](c2ccc(Cl)cc2)C(c2cccc(Cl)c2)=NN1c1ccc(Br)cc1,"16.4 µM [rising, partial curve, poor fit]",–
COC(=O)Cn1ncc(N2CC(C)OC(C)C2)c(Cl)c1=O (configuration not stated),"3.98 µM [falling, full curve, poor fit]",–
Cc1cc(C)cc(OCC(=O)Nc2cc(C)on2)c1,"1 µM [rising, full curve]",–
Cc1cccc(C(=O)NNC(=O)c2ccccc2[N+](=O)[O-])c1,"11.2 µM [falling, partial curve, poor fit]",–
O=C1/C(=C/c2ccc([N+](=O)[O-])cc2)C=C(c2ccccc2)N1c1ccc(O)cc1,"29.1 µM [falling, single point]",–
O=C(CSc1nnc(NC2CC2)s1)c1ccc[nH]1,"23.1 µM [falling, partial curve]",–
Nc1n[nH]c(N)c1N=Nc1ccc2c(c1)OCO2,"17.8 µM [falling, single point]",–
O=C(/C=C/c1ccccc1O)c1ccco1,"15.8 µM [falling, single point]",–
N=c1n(CC(=O)c2cccs2)c2ccccc2n1Cc1ccccc1,"15.8 µM [falling, partial curve, poor fit]",–
CCN(CC)C(=S)SCC(=O)c1ccc(Br)cc1,–,"20.6 µM [falling, single point]"
COCCNS(=O)(=O)c1ccc2c(c1)C(=NO)c1cc(S(=O)(=O)NCCOC)ccc1-2,"35.5 µM [rising, single point]",–
C/C(=N\NC(=O)c1cc(O)cc(O)c1)c1ccc(NC(=O)Cc2ccccc2)cc1,"7.08 µM [falling, partial curve]",–
Cc1ccc(S(=O)(=O)N2c3cc(C)ccc3OCC2C(C)(C)C)cc1 (configuration not stated),"32.6 µM [rising, partial curve, poor fit]",–
CCCCSc1cc(=O)[nH]c(N)n1,"35.5 µM [falling, partial curve, poor fit]",–
O=C1c2ccccc2S(=O)(=O)N1CC1CC(c2ccccc2Cl)=NO1 (configuration not stated),"3.26 µM [rising, full curve, poor fit]",–
O=C(CSC1=NS(=O)(=O)c2ccccc2N1)Nc1cccc(F)c1,"9.2 µM [falling, partial curve, poor fit]",–

# In the list so far, these have a carbonyl joined to an NH by a bond outside any ring:
Structure (SMILES),AC50 [1],AC50 [2]
Cc1cc(C(=O)CSc2nnc(CCC(N)=O)n2C)c(C)n1C1CC1,"32.6 µM [rising, partial curve, poor fit]",–
CCOc1ccc(NC(=O)CN2C(=O)/C(=C3\SC(=S)N(C4CCS(=O)(=O)C4)C3=O)c3ccccc32)cc1 (configuration not stated),"5.01 µM [rising, full curve, poor fit]",–
O=C(O)CCC(=O)Nc1cccc(C(=O)Nc2ccc(Br)cc2)c1,"35.5 µM [falling, partial curve, poor fit]",–
Cc1cc(C)cc(OCC(=O)Nc2cc(C)on2)c1,"1 µM [rising, full curve]",–
Cc1cccc(C(=O)NNC(=O)c2ccccc2[N+](=O)[O-])c1,"11.2 µM [falling, partial curve, poor fit]",–
C/C(=N\NC(=O)c1cc(O)cc(O)c1)c1ccc(NC(=O)Cc2ccccc2)cc1,"7.08 µM [falling, partial curve]",–
O=C(CSC1=NS(=O)(=O)c2ccccc2N1)Nc1cccc(F)c1,"9.2 µM [falling, partial curve, poor fit]",–

# (more compounds)

Structure (SMILES),AC50 [1],AC50 [2]
O=C(Nc1ccc(Cl)cc1)c1cc(S(=O)(=O)N2CCOCC2)cs1,"10.3 µM [falling, partial curve]",–
CC(O)CNCCCCOc1ccc(OCc2ccccc2)cc1 (configuration not stated),"35.5 µM [falling, single point]",–
O=C(OCn1ncc(Cl)c(Cl)c1=O)c1ccc(F)cc1,"10 µM [falling, partial curve, poor fit]",–
COc1cc(OC)c(OC)cc1CCC(C)NCCC(c1ccccc1)c1ccccc1 (configuration not stated),"11.2 µM [falling, partial curve, poor fit]",–
CC(=O)NC(Cc1ccccc1)C(=O)NC1CCN(c2ncccc2[N+](=O)[O-])CC1 (configuration not stated),"0.82 µM [rising, full curve, poor fit]",–
CSc1cccc2sc(NC(=O)C3=COCCO3)nc12,"29.1 µM [falling, single point]",–
CCOC(=O)CN1C(=O)Nc2ccc(Br)cc2C1c1ccccc1 (configuration not stated),"0.794 µM [rising, full curve, poor fit]",–
Cc1ccccc1NC(=O)CCCCC(=O)Nc1ccccc1C,"3.16 µM [falling, partial curve, poor fit]",–
Cc1[nH]c2ccc(F)cc2c1CCN(Cc1ccco1)C(=S)NC(C)(C)C,"35.5 µM [falling, single point]",–
Cc1cc(=O)[nH]c(SCc2nnc(-c3ccccc3)o2)n1,"29.1 µM [falling, single point]",–
COc1ccc(N2CCN(c3nc4ccc(C)cn4c(=O)c3C=O)CC2)cc1,"0.355 µM [rising, partial curve, poor fit]","3.16 µM [falling, single point]"
CCN(CC(=O)Nc1c(F)cccc1F)C(=O)CN1C(=O)c2ccccc2C1=O,"29.1 µM [rising, single point]",–
O=C(CSc1nnc(NC(=O)C2CC2)s1)Nc1ccccc1Cl,"12.6 µM [rising, single point]",–
COc1ccc(/C=C/C(=O)c2cc(F)ccc2OC(=O)c2ccccc2C)cc1OC,"9.2 µM [rising, single point]","5.8 µM [falling, full curve]"
Cc1ccc(Nc2nnc(C3C(=O)N(C)C4(C)CC3c3cc(Br)ccc3O4)s2)cc1 (configuration not stated),"9.2 µM [falling, partial curve, poor fit]",–
CN1CCC(N(C)S(=O)(=O)c2ccc(NC(=O)c3ccc(S(=O)(=O)N(C)C)cc3)cc2)CC1,"23.1 µM [falling, single point]",–
COC(=O)c1ccc(CN2C(=O)NC(Cc3c[nH]c4ccccc34)C2=O)cc1 (configuration not stated),"12.6 µM [falling, single point]",–
O=C(CNC(=O)c1cccs1)NCC(=O)OCC(=O)c1ccccc1,"0.282 µM [rising, full curve]",–
CCOC(=O)C1CCCN(C(=O)CNC(=O)Cn2ccc3ccccc3c2=O)C1 (configuration not stated),"0.731 µM [rising, full curve, poor fit]",–
OC1CCCN(c2c3c(nc4cc(-c5cccc(Cl)c5)nn24)CCC3)C1 (configuration not stated),"2.31 µM [rising, partial curve, poor fit]",–
